Results are given in words; binding and its absence hold for the method and conditions named.

The target in the assay is PrP^119 (residues 119-231 of human PrP) (human) (UniProt P04156). The experiment in a line: AUC.

Consider “PrP^119 (residues 119-231 of human PrP) (from UniProt P04156 119-231) (domain or fragment)”, for which the binding entry is given as “no binding (tested: 15 – 135 μM)”.

The values are drawn from paper doi:10.1101/2022.09.20.508729.
